Laboratory results taken from paper PMC9380745.
No constants are given. Whether binding was seen depends on the method and setting. In cells and extracts the contact can be indirect. Some entries that bind do so weakly or less than the wild type. Sequences can lack the tags named with a protein.

By UniProt entry, the sequences of proteins in these tests, tags left out.
UniProt Q9UJV9: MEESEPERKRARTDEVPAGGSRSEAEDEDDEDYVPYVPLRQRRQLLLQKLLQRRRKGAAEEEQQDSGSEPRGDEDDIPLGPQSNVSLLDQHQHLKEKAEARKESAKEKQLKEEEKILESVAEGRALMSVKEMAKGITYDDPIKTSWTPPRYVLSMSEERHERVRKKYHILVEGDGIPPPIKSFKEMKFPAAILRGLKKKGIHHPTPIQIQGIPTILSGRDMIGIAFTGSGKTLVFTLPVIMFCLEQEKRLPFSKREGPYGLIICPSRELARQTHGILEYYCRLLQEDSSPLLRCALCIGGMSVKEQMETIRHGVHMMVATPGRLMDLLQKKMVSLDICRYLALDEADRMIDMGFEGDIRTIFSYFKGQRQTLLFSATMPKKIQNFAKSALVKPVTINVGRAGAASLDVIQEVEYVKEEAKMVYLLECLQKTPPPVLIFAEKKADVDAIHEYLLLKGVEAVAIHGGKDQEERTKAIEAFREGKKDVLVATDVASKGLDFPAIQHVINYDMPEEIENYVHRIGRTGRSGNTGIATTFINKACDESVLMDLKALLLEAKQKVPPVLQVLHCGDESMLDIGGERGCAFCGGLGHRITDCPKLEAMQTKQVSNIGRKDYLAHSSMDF
UniProt Q96Q15: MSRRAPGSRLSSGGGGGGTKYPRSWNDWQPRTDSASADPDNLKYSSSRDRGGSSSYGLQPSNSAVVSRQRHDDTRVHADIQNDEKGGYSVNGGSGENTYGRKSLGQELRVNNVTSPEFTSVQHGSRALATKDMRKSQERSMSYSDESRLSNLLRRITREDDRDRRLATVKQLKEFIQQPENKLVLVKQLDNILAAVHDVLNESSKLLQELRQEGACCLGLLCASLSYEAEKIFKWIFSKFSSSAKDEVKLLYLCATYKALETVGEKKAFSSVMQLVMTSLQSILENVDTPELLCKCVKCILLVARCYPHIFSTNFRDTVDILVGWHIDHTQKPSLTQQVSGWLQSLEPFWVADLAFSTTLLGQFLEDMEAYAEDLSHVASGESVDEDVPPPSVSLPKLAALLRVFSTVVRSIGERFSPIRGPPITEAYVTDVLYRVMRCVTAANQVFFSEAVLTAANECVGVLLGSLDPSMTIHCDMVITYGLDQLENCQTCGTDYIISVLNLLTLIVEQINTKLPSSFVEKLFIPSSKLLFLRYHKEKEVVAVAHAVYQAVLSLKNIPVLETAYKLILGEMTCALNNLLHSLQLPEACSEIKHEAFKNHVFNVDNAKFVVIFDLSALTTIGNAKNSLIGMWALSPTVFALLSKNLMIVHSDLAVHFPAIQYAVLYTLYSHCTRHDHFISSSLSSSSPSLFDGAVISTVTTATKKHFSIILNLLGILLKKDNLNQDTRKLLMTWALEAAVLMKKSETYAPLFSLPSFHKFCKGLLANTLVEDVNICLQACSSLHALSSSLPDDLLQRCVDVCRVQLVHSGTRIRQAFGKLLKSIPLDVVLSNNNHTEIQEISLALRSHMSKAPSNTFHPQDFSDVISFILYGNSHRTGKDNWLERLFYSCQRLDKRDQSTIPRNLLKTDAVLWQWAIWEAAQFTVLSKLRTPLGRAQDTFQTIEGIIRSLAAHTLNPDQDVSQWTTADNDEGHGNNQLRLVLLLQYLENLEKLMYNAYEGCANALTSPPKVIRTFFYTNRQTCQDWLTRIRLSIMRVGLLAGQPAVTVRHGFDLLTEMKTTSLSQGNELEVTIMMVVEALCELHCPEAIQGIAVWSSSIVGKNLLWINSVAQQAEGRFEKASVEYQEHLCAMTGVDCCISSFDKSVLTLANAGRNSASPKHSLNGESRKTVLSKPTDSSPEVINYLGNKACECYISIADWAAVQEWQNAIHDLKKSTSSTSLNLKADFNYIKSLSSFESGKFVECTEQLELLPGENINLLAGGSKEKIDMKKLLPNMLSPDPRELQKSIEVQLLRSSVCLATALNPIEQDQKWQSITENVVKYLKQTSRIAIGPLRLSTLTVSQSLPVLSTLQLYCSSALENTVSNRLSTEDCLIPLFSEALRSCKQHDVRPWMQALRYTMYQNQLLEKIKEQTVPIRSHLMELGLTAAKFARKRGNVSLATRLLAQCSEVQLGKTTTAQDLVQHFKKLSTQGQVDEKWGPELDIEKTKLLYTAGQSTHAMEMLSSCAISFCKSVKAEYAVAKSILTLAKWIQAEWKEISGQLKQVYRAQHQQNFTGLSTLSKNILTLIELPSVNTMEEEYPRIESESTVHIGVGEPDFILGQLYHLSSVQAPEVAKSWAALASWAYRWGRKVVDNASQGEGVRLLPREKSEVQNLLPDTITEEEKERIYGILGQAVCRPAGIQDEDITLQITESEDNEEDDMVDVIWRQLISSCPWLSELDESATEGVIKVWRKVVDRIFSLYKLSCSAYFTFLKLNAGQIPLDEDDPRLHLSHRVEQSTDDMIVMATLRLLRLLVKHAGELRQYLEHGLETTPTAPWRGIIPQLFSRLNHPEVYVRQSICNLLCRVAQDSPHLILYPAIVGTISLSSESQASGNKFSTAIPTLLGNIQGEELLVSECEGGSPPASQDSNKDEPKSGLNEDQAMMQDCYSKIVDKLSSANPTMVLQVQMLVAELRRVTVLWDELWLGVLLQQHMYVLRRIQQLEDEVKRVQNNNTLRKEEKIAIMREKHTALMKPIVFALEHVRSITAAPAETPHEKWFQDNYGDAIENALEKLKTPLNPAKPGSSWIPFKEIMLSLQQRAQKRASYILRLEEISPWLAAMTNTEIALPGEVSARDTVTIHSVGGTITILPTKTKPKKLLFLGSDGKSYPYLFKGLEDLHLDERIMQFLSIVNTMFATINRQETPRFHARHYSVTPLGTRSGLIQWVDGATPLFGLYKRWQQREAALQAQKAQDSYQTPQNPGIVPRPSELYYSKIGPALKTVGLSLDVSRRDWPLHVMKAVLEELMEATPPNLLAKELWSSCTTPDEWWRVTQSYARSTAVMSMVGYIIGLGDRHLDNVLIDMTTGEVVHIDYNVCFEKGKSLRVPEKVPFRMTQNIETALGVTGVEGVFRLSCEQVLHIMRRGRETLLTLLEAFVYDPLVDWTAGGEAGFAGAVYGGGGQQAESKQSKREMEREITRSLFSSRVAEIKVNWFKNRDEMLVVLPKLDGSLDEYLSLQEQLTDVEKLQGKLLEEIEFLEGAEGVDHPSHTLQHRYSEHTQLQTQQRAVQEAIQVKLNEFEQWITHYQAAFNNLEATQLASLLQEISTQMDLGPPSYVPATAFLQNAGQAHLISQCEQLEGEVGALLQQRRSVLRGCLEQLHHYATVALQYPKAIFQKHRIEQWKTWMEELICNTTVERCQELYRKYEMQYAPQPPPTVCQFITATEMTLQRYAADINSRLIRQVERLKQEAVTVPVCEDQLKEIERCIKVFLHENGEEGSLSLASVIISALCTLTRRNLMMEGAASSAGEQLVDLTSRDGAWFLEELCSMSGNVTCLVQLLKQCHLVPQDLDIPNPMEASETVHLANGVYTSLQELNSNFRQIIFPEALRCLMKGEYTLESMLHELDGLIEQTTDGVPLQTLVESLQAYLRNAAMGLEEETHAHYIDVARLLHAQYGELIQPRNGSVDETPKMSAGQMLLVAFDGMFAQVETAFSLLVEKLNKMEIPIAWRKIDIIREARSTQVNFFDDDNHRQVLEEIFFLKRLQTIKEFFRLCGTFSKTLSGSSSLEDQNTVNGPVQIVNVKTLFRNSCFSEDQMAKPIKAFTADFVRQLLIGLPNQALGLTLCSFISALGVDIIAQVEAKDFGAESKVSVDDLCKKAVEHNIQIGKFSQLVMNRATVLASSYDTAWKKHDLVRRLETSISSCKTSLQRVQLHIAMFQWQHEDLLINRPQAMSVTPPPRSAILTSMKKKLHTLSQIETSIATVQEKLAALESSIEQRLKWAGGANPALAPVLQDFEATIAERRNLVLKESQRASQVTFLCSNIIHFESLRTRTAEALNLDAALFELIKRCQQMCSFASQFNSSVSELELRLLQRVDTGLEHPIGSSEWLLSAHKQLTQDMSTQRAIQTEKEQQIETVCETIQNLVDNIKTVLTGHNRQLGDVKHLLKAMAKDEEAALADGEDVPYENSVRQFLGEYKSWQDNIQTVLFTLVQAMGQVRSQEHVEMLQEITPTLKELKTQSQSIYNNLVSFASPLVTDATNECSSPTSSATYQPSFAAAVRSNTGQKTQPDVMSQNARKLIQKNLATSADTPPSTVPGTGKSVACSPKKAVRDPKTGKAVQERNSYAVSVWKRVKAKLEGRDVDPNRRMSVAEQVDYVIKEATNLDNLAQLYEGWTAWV

T1: DHX34–GFP–FLAG (human (endogenous in HEK293T)) (UniProt Q14147)
T1 sequence: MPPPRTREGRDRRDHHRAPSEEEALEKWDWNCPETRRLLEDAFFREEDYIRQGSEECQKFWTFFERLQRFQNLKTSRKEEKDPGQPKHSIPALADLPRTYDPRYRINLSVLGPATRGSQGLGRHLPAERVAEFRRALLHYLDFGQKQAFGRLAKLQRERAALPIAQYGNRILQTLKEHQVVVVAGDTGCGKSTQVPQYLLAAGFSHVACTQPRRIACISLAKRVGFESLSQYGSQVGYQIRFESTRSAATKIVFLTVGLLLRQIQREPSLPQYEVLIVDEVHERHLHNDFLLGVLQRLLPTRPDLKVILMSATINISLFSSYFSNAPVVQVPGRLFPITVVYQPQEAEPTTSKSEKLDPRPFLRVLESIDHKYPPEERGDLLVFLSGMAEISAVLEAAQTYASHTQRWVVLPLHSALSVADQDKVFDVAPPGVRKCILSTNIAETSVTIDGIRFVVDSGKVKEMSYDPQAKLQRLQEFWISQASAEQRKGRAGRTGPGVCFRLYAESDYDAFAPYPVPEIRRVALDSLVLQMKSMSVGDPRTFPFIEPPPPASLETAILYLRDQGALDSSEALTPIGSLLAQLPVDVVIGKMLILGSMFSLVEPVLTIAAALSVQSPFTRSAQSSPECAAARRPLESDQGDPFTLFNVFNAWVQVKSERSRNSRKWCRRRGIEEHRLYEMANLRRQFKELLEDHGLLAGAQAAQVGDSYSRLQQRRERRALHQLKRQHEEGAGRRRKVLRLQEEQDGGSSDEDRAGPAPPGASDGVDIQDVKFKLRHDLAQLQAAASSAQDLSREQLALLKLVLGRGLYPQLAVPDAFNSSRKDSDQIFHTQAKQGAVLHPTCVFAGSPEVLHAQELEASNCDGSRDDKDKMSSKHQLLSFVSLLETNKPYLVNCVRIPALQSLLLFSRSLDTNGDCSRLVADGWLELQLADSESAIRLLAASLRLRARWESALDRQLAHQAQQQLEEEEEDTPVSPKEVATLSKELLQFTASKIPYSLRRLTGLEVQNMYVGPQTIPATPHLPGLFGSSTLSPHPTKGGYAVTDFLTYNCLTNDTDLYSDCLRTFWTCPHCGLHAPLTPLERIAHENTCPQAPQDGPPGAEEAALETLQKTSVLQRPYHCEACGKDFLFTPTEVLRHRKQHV

B1: ISY1 (protein, UniProt Q9ULR0 1-285)
chain: MARNAEKAMTALARFRQAQLEEGKVKERRPFLASECTELPKAEKWRRQIIGEISKKVAQIQNAGLGEFRIRDLNDEINKLLREKGHWEVRIKELGGPDYGKVGPKMLDHEGKEVPGNRGYKYFGAAKDLPGVRELFEKEPLPPPRKTRAELMKAIDFEYYGYLDEDDGVIVPLEQEYEKKLRAELVEKWKAEREARLARGEKEEEEEEEEEINIYAVTEEESDEEGSQEKGGDDSQQKFIAHVPVPSQQEIEEALVRRKKMELLQKYASETLQAQSEEARRLLGY

target: T1, DHX34–GFP–FLAG (human (endogenous in HEK293T)); assay: co-IP; anti-GFP MA magnetic beads (ChromoTek) on lysates of CRISPR DHX34–GFP–FLAG HEK293T clones; IP buffer 20 mM Tris-HCl pH 8, 150 mM NaCl, 1 mM EDTA, 1% NP-40, 0.2% deoxycholate, 1 mM DTT; lysates treated with 80 µg/mL RNase A; western blot

binding, binds:
DDX41 (from UniProt Q9UJV9 1-622)
Serine/Threonine-protein kinase SMG1 (from UniProt Q96Q15 1-3661)
B1
